In the supplement of paper PMC10849652:
This is one part of the list.

By UniProt entry, the sequences of proteins in these tests, tags left out. Where a name states a change or a piece, a line headed by the entry shows the natural chain unless it says otherwise.
UniProt Q7L1T6: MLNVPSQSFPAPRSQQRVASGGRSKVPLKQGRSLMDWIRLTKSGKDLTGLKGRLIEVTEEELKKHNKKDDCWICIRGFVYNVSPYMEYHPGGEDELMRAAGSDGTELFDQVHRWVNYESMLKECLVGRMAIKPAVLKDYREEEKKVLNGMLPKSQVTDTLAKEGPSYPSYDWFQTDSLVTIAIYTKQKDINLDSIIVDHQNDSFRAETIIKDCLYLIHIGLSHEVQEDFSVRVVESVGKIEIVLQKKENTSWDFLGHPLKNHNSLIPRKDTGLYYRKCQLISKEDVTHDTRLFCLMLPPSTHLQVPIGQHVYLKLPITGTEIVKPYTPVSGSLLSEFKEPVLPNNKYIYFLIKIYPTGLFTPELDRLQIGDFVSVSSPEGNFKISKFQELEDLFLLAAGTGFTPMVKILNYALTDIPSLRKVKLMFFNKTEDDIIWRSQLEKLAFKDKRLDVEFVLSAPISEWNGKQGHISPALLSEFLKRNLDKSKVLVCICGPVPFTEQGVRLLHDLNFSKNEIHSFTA
UniProt Q8WUE5: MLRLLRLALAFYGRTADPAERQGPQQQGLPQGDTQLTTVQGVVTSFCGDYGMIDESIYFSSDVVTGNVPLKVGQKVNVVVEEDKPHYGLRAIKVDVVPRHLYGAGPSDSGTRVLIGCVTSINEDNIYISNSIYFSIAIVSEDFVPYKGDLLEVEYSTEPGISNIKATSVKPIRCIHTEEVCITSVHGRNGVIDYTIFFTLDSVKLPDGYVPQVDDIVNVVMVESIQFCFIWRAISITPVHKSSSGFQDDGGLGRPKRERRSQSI
UniProt P17812: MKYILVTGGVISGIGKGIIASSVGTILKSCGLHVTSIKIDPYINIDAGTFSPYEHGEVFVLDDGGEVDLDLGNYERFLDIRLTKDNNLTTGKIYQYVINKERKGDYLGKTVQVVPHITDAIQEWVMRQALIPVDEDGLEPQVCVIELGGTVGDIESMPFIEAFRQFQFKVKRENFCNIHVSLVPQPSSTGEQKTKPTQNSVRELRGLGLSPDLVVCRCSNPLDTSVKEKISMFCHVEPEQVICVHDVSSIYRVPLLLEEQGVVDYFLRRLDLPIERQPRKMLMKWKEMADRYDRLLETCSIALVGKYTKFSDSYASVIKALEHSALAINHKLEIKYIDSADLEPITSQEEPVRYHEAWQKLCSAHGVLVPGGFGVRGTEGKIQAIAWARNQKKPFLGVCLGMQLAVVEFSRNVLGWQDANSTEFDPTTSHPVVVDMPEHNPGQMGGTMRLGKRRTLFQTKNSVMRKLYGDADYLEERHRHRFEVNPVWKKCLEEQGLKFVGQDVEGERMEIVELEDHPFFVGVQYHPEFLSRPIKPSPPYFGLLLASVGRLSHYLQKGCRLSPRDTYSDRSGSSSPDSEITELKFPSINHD
UniProt Q5JQC4: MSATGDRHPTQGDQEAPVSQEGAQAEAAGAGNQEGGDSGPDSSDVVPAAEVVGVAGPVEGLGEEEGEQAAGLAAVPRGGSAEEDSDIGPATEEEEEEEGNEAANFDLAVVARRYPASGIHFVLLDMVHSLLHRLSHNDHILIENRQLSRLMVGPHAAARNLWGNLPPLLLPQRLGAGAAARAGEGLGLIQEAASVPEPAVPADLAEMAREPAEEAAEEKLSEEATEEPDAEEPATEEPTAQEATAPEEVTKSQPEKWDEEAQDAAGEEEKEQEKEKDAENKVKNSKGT
UniProt O43169: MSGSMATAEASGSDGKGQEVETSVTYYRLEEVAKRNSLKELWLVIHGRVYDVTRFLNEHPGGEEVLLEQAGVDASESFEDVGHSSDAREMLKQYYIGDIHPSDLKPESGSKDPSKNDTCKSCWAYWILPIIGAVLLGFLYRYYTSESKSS
UniProt P55060: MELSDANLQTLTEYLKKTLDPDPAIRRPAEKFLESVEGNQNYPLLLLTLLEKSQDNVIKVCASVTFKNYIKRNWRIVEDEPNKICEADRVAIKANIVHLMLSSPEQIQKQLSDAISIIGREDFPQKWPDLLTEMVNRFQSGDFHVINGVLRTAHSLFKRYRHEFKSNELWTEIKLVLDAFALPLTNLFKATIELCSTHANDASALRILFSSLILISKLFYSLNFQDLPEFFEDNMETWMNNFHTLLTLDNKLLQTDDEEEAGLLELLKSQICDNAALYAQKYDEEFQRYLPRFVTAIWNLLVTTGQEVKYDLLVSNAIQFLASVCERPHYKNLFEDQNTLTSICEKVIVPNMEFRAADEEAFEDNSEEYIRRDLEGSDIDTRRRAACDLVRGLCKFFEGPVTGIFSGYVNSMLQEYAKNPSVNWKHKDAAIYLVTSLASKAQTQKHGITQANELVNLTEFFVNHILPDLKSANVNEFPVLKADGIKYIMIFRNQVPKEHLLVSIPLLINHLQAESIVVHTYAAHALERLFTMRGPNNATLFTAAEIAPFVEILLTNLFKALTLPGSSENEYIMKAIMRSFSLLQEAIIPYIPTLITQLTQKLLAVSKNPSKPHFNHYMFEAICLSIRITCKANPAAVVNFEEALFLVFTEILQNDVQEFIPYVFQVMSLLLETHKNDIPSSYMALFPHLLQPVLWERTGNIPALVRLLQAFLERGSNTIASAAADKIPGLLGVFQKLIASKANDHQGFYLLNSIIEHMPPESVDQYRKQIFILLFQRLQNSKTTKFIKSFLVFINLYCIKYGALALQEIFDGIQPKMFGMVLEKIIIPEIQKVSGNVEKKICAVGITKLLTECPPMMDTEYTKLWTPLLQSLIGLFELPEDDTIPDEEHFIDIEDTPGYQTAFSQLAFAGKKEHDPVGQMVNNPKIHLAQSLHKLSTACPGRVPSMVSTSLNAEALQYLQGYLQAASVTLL
UniProt Q6UX04: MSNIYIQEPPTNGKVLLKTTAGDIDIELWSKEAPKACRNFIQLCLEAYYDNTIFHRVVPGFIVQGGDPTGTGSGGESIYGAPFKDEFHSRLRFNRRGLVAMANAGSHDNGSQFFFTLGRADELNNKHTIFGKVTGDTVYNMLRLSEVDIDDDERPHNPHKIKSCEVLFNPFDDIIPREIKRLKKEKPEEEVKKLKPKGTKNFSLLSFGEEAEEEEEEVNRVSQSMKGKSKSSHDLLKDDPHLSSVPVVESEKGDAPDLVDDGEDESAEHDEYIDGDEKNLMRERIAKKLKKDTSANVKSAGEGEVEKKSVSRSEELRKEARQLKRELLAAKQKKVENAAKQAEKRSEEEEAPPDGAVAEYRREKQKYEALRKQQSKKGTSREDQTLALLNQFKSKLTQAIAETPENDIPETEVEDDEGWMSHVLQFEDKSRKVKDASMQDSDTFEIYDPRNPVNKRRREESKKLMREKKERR
UniProt O43310: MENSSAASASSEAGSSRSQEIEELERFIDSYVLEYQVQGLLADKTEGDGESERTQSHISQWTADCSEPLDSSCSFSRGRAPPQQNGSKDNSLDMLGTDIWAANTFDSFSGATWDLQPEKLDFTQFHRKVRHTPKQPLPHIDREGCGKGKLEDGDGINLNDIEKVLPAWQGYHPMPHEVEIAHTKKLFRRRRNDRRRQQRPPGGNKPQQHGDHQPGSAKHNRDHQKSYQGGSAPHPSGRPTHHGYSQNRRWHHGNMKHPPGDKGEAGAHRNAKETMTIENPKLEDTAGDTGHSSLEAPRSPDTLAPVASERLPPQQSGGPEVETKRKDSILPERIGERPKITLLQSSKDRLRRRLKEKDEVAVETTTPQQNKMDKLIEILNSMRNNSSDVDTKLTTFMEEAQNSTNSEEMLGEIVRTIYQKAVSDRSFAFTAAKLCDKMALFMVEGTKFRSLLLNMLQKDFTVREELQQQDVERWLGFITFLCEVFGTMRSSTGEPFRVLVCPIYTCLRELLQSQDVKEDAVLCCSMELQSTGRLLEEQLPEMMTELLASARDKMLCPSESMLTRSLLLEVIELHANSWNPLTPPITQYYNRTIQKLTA
UniProt P49674: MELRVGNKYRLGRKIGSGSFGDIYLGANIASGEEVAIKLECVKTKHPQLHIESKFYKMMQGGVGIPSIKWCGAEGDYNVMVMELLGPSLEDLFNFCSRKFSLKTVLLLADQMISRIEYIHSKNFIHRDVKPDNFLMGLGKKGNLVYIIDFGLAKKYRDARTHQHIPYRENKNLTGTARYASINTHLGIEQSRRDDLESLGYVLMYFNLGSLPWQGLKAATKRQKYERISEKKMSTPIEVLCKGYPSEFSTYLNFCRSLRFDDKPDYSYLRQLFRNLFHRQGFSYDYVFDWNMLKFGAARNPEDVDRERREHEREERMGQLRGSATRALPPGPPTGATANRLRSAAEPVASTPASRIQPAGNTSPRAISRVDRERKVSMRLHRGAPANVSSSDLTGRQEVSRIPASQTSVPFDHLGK
UniProt Q8IUI8: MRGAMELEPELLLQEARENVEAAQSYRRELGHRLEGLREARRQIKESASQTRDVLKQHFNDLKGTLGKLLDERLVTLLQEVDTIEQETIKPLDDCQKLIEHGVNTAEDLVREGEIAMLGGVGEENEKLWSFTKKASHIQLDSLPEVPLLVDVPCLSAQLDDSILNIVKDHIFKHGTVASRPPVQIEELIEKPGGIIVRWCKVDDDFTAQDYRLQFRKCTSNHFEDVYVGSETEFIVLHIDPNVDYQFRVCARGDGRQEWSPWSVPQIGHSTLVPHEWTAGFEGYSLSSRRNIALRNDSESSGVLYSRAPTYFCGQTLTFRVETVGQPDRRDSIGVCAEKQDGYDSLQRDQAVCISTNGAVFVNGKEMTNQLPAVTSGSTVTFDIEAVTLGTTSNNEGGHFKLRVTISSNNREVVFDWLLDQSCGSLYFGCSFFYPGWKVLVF
UniProt Q69YN2: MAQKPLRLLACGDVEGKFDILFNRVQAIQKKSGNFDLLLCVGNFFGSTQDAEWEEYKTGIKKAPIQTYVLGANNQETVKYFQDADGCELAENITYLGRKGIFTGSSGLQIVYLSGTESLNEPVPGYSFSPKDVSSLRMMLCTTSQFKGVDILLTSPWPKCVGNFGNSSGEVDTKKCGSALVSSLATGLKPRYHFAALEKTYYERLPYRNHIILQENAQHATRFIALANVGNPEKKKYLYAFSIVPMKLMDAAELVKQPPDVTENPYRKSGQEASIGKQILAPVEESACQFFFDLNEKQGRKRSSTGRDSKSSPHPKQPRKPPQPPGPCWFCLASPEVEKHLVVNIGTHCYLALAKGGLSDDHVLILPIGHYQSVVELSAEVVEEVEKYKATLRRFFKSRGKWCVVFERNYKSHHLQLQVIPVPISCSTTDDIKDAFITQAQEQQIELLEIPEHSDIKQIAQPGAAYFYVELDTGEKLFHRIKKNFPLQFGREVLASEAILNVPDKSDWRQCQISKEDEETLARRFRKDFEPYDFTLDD
UniProt Q13619, whole entry, looked up: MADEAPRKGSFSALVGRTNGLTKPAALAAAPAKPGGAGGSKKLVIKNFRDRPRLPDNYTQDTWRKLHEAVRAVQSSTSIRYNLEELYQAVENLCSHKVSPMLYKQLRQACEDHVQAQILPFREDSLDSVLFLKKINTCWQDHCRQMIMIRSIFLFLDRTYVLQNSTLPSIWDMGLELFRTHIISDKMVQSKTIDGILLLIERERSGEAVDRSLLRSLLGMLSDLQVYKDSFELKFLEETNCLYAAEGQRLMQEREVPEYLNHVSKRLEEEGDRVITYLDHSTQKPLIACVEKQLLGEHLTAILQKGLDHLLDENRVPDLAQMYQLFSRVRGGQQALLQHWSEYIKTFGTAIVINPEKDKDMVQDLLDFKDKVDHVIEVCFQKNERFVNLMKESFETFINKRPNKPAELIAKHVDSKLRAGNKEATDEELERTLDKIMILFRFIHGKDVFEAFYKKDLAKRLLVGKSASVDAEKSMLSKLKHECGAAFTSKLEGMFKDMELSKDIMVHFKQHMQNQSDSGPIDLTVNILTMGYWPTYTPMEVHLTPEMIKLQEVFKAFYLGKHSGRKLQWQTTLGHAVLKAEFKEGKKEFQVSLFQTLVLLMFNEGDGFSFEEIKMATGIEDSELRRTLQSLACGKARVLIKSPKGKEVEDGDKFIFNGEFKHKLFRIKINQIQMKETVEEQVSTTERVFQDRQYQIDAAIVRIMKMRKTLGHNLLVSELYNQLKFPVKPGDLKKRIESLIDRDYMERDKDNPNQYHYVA
UniProt P67870, whole entry, looked up: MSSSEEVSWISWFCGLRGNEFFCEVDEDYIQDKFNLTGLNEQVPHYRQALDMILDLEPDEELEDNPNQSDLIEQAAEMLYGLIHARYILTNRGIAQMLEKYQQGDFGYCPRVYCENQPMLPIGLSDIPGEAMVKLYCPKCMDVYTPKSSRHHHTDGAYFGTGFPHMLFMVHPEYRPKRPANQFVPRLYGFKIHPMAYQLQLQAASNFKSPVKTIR
UniProt Q9P021, whole entry, looked up: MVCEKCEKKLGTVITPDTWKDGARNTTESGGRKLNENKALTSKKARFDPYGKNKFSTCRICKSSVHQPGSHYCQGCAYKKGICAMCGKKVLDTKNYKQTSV

Assays:
Experiment in all cases: log2 fold change, soluble protein after heating vs DMSO (PISA); higher = thermal stabilisation; K562 lysate, 10 uM; active = over 0.2 and 3.5 SD of the protein, either way, in both replicates (recomputed)
nilotinib = compound: Cc1cn(-c2cc(NC(=O)c3ccc(C)c(Nc4nccc(-c5cccnc5)n4)c3)cc(C(F)(F)F)c2)cn1 [nilotinib]
Outline: (§1)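 Soluble protein was defined as the supernatant remaining after 21,000xg for 90 min, following pooling of heated aliquots and adjustment to 0.5% NP-40 at 4°C. Before that, crude K562 extract at 1 mg/mL protein in PBS pH 7.4 with 1 mM MgCl2 was treated with 10 μM compound for 30 min and heated for 3 min across 48°C-58°C. Quantification used TMTpro 16plex LC-MS/MS with channel sums equalised, and values are log-two fold changes in thermal stability relative to solvent controls from duplicates.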

[1] = compound: Cc1nc(Nc2n[nH]c3c2CN(C(=O)N[C@H](CN(C)C)c2ccccc2)C3(C)C)c2sccc2n1
Outline: as §1

dasatinib = compound: Cc1nc(Nc2ncc(C(=O)Nc3c(C)cccc3Cl)s2)cc(N2CCN(CCO)CC2)n1 [dasatinib]
Outline: as §1

[2] = compound: Cc1ncc(-c2ccnc(Nc3ccc(S(C)(=O)=O)cc3)n2)n1C(C)C
Outline: as §1

[3] = compound: Cn1cc(-c2ccc3c(c2)CCN3C(=O)Cc2cccc(C(F)(F)F)c2)c2c(N)ncnc21
Outline: as §1

quisinostat = compound: Cn1cc(CNCC2CCN(c3ncc(C(=O)NO)cn3)CC2)c2ccccc21 [quisinostat]
Outline: as §1

tipifarnib = compound: Cn1cncc1[C@@](N)(c1ccc(Cl)cc1)c1ccc2c(c1)c(-c1cccc(Cl)c1)cc(=O)n2C [tipifarnib]
Outline: as §1

[4] = compound: NC(=O)Nc1cc(-c2cccc(F)c2)sc1C(=O)N[C@H]1CCCNC1
Outline: as §1

[5] = compound: NC(=O)c1cnc(N[C@@H]2CCCC[C@@H]2N)nc1Nc1cccc(-n2nccn2)c1
Outline: as §1

[6] = compound: NC1(c2ccc(-c3nc4ccn5c(=O)[nH]nc5c4cc3-c3ccccc3)cc2)CCC1
Outline: as §1

[7] = compound: NCC(=O)Nc1ccc(-n2nc(C(F)(F)F)cc2-c2ccc3c(ccc4ccccc43)c2)cc1
Outline: as §1

vorinostat = compound: O=C(CCCCCCC(=O)Nc1ccccc1)NO [vorinostat]
Outline: as §1

silmitasertib = compound: O=C(O)c1ccc2c(c1)nc(Nc1cccc(Cl)c1)c1ccncc12 [silmitasertib]
Outline: as §1

[8] = compound: O=C1NC(=O)C(c2cnc3ccccn23)=C1c1cn2c3c(cc(F)cc13)CN(C(=O)N1CCCCC1)CC2
Outline: as §1

entospletinib = compound: c1cn2cc(-c3ccc4cn[nH]c4c3)nc(Nc3ccc(N4CCOCC4)cc3)c2n1 [entospletinib]
Outline: as §1

Row | Target | log2 fold change (nilotinib) | log2 fold change [1] | log2 fold change (dasatinib) | log2 fold change [2] | log2 fold change [3] | log2 fold change (quisinostat) | log2 fold change (tipifarnib) | log2 fold change [4] | log2 fold change [5] | log2 fold change [6] | log2 fold change [7] | log2 fold change (vorinostat) | log2 fold change (silmitasertib) | log2 fold change [8] | log2 fold change (entospletinib)
1 | CYB5R4 (UniProt Q7L1T6) | inactive: -0.072 | inactive: 0.059 | inactive: -0.025 | inactive: 0.057 | inactive: 0.058 | inactive: -0.099 | inactive: -0.003 | inactive: 0.076 | inactive: -0.038 | inactive: -0.013 | inactive: 0.027 | inactive: -0.084 | inactive: -0.093 | inactive: -0.03 | inactive: -0.011
2 | CT55 (UniProt Q8WUE5) | inactive: -0.091 | inactive: 0.025 | inactive: -0.142 | inactive: 0 | inactive: -0.125 | inactive: -0.071 | inactive: -0.087 | inactive: 0.081 | inactive: 0.119 | inactive: 0.057 | inactive: -0.097 | inactive: -0.052 | inactive: 0.005 | inactive: -0.03 | inactive: 0.035
3 | CTPS1 (UniProt P17812) | inactive: 0.009 | inactive: -0.005 | inactive: -0.058 | inactive: 0.011 | inactive: 0.026 | inactive: -0.019 | inactive: -0.015 | inactive: 0.028 | inactive: 0.002 | inactive: -0.004 | inactive: -0.007 | active: 0.565 | inactive: 0.028 | inactive: -0.008 | inactive: -0.005
4 | CTSB (UniProt P07858) | inactive: -0.031 | inactive: -0.009 | inactive: 0.024 | inactive: 0.022 | inactive: -0.013 | inactive: 0.036 | inactive: 0.028 | inactive: 0.014 | inactive: -0.006 | inactive: -0.022 | inactive: 0.004 | inactive: 0.03 | inactive: -0.027 | inactive: 0.04 | inactive: 0.001
5 | CT47A1 (UniProt Q5JQC4) | inactive: 0.02 | inactive: 0.001 | inactive: -0.025 | inactive: -0.031 | inactive: 0.061 | inactive: 0.026 | inactive: 0 | inactive: 0.021 | inactive: -0.037 | inactive: 0.018 | inactive: -0.025 | inactive: 0.051 | inactive: -0.057 | inactive: -0.024 | inactive: -0.004
6 | CYB5B (UniProt O43169) | inactive: 0.045 | inactive: -0.055 | inactive: 0.037 | inactive: 0.031 | inactive: -0.134 | inactive: 0.016 | inactive: 0.056 | inactive: -0.011 | inactive: -0.014 | inactive: -0.002 | inactive: -0.033 | inactive: 0.032 | inactive: -0.015 | inactive: -0.035 | inactive: -0.023
7 | CSE1L (UniProt P55060) | inactive: -0.005 | inactive: -0.008 | inactive: -0.051 | inactive: 0.012 | inactive: 0.003 | inactive: 0.04 | inactive: -0.012 | inactive: 0.019 | inactive: 0.014 | inactive: 0.013 | inactive: -0.004 | inactive: -0.103 | inactive: 0.021 | inactive: -0.024 | inactive: 0.032
8 | CWC27 (UniProt Q6UX04) | inactive: -0.024 | inactive: -0.001 | inactive: -0.041 | inactive: -0.03 | inactive: -0.012 | inactive: -0.023 | inactive: 0.02 | inactive: 0.02 | inactive: 0.006 | inactive: 0.005 | inactive: 0.005 | inactive: 0.067 | inactive: -0.01 | inactive: -0.017 | inactive: 0.013
9 | CTCF (UniProt P49711) | inactive: 0.016 | inactive: -0.006 | inactive: 0.013 | inactive: -0.031 | inactive: 0.046 | inactive: -0.005 | inactive: 0.023 | inactive: 0.005 | inactive: 0.003 | inactive: -0.016 | inactive: 0.005 | inactive: 0.004 | inactive: 0.029 | inactive: -0.008 | inactive: -0.031
10 | CTIF isoform 2 (UniProt O43310) | inactive: 0.057 | inactive: -0.072 | inactive: 0.043 | inactive: 0.023 | inactive: -0.031 | inactive: -0.023 | inactive: -0.016 | inactive: 0.022 | inactive: 0.015 | inactive: -0.023 | inactive: -0.05 | inactive: 0.082 | inactive: 0.038 | inactive: 0.001 | inactive: 0.063
11 | CWC22 (UniProt Q9HCG8) | inactive: 0.043 | inactive: 0.017 | inactive: -0.015 | inactive: 0.002 | inactive: 0.02 | inactive: 0.015 | inactive: 0 | inactive: 0.011 | inactive: 0.023 | inactive: -0.011 | inactive: -0.012 | inactive: -0.156 | inactive: 0.032 | inactive: -0.016 | inactive: 0.015
12 | CSNK1E (UniProt P49674) | inactive: -0.025 | inactive: -0.008 | inactive: 0.053 | inactive: 0.091 | inactive: -0.078 | inactive: -0.075 | inactive: -0.092 | inactive: 0.059 | inactive: 0.055 | inactive: -0.06 | inactive: 0.016 | active: -0.419 | inactive: 0.206 | inactive: 0.01 | inactive: 0.012
13 | CRLF3 (UniProt Q8IUI8) | inactive: -0.006 | inactive: -0.008 | inactive: 0.005 | inactive: 0.012 | inactive: -0.018 | inactive: -0.061 | inactive: 0.013 | inactive: -0.002 | inactive: 0.01 | inactive: -0.055 | inactive: 0.049 | inactive: -0.149 | inactive: -0.004 | inactive: 0.004 | inactive: 0.002
14 | CSTF3 (UniProt Q12996) | inactive: -0.026 | inactive: -0.014 | inactive: -0.03 | inactive: -0.027 | inactive: 0.031 | inactive: -0.021 | inactive: -0.006 | inactive: -0.002 | inactive: 0.001 | inactive: 0.021 | inactive: -0.056 | inactive: -0.101 | inactive: 0.017 | inactive: -0.033 | inactive: -0.008
15 | CWF19L1 (UniProt Q69YN2) | inactive: -0.004 | inactive: 0.042 | inactive: 0 | inactive: -0.045 | inactive: -0.027 | inactive: 0.039 | inactive: 0.037 | inactive: 0 | inactive: 0.007 | inactive: 0.011 | inactive: -0.026 | inactive: -0.11 | inactive: -0.025 | inactive: -0.044 | inactive: -0.007
16 | CUL4A (UniProt Q13619) | inactive: -0.006 | inactive: 0.002 | inactive: -0.016 | inactive: 0.01 | inactive: -0.01 | inactive: -0.031 | inactive: 0.011 | inactive: 0.005 | inactive: -0.012 | inactive: -0.005 | inactive: -0.025 | inactive: -0.047 | inactive: 0.015 | inactive: -0.001 | inactive: -0.004
17 | CSNK2B (UniProt P67870) | inactive: 0.086 | inactive: -0.029 | inactive: -0.014 | inactive: 0.034 | inactive: -0.006 | inactive: -0.005 | inactive: -0.058 | inactive: 0.028 | inactive: 0.042 | inactive: -0.049 | inactive: 0.2 | inactive: -0.016 | active: 0.595 | inactive: 0.023 | inactive: 0.241
18 | CRIPT (UniProt Q9P021) | inactive: 0.021 | inactive: -0.003 | inactive: -0.019 | inactive: 0.006 | inactive: -0.002 | inactive: 0.039 | inactive: 0.025 | inactive: -0.112 | inactive: -0.042 | inactive: -0.003 | inactive: -0.002 | inactive: 0.128 | inactive: 0.031 | inactive: -0.011 | inactive: 0.015
19 | CTNND1 isoform 3 (UniProt O60716) | inactive: -0.027 | inactive: -0.02 | inactive: 0.006 | inactive: -0.017 | inactive: 0.009 | inactive: -0.065 | inactive: -0.06 | inactive: 0.027 | inactive: 0.065 | inactive: -0.065 | inactive: -0.017 | active: -0.371 | inactive: 0.034 | inactive: -0.014 | inactive: -0.005

Fetched one by one from the list above, two records:
Row | Target | log2 fold change (nilotinib) | log2 fold change [1] | log2 fold change (dasatinib) | log2 fold change [2] | log2 fold change [3] | log2 fold change (quisinostat) | log2 fold change (tipifarnib) | log2 fold change [4] | log2 fold change [5] | log2 fold change [6] | log2 fold change [7] | log2 fold change (vorinostat) | log2 fold change (silmitasertib) | log2 fold change [8] | log2 fold change (entospletinib)
8 | CWC27 (UniProt Q6UX04) | inactive: -0.024 | inactive: -0.001 | inactive: -0.041 | inactive: -0.03 | inactive: -0.012 | inactive: -0.023 | inactive: 0.02 | inactive: 0.02 | inactive: 0.006 | inactive: 0.005 | inactive: 0.005 | inactive: 0.067 | inactive: -0.01 | inactive: -0.017 | inactive: 0.013
4 | CTSB (UniProt P07858) | inactive: -0.031 | inactive: -0.009 | inactive: 0.024 | inactive: 0.022 | inactive: -0.013 | inactive: 0.036 | inactive: 0.028 | inactive: 0.014 | inactive: -0.006 | inactive: -0.022 | inactive: 0.004 | inactive: 0.03 | inactive: -0.027 | inactive: 0.04 | inactive: 0.001
